Measurements reported in the supplement of paper PMC10849652.
The other results are listed elsewhere or left out.

Sequences of proteins named here, by UniProt entry; tags and fusion partners are left off. A change or cut given only in a name is not applied to a line headed by its entry.
UniProt P51790: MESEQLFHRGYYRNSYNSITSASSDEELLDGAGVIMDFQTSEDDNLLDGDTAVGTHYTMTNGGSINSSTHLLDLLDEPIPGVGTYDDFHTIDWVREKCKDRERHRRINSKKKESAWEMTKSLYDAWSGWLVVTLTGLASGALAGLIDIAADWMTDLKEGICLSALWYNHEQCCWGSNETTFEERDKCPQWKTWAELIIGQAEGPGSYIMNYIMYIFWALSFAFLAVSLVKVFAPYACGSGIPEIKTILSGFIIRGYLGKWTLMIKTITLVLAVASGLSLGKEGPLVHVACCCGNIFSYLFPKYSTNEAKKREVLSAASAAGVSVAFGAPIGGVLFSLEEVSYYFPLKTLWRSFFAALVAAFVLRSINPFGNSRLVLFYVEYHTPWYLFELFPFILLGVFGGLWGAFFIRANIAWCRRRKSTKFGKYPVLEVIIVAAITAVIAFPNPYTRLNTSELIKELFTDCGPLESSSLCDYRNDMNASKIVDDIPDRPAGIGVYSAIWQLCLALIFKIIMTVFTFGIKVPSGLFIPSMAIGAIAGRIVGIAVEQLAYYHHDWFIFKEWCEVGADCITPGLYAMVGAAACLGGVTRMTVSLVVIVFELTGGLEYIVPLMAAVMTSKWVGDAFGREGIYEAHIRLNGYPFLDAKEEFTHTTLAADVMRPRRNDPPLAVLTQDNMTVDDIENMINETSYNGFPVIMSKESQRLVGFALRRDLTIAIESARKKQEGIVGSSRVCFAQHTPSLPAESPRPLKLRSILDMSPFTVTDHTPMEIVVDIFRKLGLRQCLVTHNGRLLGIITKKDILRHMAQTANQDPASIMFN
UniProt O15111: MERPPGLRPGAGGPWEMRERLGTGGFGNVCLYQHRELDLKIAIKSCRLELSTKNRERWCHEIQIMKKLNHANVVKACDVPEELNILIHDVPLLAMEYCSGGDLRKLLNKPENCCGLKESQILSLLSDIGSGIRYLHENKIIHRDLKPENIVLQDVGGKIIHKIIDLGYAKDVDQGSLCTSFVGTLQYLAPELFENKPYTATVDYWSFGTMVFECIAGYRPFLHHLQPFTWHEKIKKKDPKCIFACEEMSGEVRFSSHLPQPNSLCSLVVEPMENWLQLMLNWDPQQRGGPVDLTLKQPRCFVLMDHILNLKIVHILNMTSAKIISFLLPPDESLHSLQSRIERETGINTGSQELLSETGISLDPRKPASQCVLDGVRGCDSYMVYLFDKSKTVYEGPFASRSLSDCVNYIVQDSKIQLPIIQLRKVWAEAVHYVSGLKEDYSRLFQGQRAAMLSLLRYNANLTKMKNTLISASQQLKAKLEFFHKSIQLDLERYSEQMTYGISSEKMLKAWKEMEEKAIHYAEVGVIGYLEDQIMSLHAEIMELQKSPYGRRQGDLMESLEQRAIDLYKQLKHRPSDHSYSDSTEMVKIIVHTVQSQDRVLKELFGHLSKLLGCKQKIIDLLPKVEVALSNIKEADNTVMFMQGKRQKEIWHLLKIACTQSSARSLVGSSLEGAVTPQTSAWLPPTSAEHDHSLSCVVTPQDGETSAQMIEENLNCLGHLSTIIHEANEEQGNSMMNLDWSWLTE
UniProt P30622: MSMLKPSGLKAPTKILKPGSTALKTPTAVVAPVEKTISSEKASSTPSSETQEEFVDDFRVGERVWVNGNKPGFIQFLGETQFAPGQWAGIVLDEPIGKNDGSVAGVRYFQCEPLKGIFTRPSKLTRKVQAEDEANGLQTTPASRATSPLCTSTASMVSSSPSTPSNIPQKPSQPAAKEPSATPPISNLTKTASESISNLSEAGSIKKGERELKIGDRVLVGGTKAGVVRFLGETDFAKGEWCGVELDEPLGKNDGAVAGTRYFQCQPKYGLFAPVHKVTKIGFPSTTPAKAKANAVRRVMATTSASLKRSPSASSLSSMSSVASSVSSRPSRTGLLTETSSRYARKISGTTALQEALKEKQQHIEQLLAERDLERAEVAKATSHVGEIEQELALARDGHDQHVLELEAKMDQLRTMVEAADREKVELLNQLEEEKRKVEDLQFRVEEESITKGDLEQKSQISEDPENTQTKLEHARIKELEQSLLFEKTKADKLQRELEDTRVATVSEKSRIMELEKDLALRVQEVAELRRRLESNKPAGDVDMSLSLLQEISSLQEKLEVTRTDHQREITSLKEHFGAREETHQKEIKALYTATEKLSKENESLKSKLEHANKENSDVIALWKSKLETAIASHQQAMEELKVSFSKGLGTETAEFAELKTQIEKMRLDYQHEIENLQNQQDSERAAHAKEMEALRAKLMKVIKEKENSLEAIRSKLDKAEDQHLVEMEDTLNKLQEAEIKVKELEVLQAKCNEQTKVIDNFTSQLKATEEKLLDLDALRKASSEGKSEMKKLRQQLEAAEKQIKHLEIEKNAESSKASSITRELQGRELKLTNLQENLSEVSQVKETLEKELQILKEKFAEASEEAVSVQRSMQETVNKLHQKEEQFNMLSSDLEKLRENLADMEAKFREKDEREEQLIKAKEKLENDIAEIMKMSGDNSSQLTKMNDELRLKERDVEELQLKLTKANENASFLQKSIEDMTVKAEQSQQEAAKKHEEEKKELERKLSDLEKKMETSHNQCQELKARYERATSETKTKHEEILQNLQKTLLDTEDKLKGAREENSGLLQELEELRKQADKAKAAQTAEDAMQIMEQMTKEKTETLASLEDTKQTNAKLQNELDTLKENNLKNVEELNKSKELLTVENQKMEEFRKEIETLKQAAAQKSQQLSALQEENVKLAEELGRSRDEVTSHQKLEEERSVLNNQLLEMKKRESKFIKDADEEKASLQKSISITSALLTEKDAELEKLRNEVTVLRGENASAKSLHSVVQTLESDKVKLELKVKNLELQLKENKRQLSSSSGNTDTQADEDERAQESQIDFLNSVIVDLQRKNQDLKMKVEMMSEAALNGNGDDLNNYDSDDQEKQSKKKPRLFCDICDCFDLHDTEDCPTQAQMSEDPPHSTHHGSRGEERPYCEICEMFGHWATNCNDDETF
UniProt P35790, whole entry, looked up: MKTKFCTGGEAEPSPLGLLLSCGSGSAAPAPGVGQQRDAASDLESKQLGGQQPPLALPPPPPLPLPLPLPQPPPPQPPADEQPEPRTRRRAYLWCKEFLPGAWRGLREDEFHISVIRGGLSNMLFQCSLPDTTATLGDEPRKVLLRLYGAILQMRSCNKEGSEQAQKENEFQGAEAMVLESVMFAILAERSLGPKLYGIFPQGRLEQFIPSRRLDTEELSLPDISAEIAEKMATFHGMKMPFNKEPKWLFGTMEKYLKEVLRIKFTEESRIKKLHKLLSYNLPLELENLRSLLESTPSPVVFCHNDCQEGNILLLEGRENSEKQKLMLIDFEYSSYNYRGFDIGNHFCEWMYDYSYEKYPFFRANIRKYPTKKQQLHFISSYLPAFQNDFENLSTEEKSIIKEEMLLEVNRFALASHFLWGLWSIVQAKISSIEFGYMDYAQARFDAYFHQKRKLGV
UniProt Q8N2M8: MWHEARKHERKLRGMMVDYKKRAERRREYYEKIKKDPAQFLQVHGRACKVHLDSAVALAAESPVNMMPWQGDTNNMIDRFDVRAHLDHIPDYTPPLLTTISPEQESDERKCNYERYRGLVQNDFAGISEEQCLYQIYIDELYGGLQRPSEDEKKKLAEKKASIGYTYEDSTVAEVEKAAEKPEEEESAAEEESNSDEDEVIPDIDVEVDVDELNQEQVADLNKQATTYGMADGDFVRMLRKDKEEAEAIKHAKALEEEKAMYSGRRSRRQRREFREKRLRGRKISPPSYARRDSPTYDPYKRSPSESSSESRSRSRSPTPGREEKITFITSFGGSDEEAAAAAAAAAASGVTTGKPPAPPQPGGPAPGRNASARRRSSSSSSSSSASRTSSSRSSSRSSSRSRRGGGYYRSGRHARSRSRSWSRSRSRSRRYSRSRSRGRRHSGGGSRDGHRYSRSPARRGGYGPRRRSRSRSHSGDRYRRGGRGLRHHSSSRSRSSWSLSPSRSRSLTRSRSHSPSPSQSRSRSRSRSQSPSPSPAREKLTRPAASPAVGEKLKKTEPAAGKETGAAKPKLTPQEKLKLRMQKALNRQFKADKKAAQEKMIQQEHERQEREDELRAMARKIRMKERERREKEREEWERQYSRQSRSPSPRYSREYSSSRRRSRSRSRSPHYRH
UniProt Q9H444: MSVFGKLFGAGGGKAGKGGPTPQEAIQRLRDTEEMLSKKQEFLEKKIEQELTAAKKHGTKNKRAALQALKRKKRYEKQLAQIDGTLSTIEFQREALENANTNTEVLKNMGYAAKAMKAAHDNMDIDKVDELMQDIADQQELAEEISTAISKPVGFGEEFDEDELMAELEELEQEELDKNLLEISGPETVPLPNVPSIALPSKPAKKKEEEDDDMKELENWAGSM
UniProt Q96MX0: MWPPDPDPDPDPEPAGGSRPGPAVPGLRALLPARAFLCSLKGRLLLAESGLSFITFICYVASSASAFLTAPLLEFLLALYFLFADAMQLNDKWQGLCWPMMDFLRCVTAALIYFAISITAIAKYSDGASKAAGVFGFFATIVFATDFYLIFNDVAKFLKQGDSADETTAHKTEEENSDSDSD

compound: c1ccc([C@@H]2C[C@H]2NC2CCNCC2)cc1; assay: log2 fold change, soluble protein after heating vs DMSO (PISA); higher = thermal stabilisation; K562 lysate, 10 uM; active = over 0.2 and 3.5 SD of the protein, either way, in both replicates (recomputed)
Procedure, shortened: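 A 30 min treatment with 10 μM compound was applied to crude K562 extract at 1 mg/mL protein in PBS pH 7.4 with 1 mM MgCl2. Heating for 3 min spanned 48°C-58°C, after which aliquots were pooled, adjusted to 0.5% NP-40 at 4°C and spun at 21,000xg for 90 min. TMTpro 16plex LC-MS/MS of the supernatant, with channel sums equalised, gave values recorded as log-two fold change in thermal stability against solvent controls, from duplicates.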

Target | log2 fold change
CLCN3 (UniProt P51790) | inactive: 0.017
CHUK (UniProt O15111) | inactive: 0.015
CLIP1 isoform 2 (UniProt P30622) | inactive: -0.002
CHKA (UniProt P35790) | inactive: 0.071
CLASRP (UniProt Q8N2M8) | inactive: -0.009
CHMP4B (UniProt Q9H444) | inactive: 0.006
CMTM3 (UniProt Q96MX0) | inactive: -0.024
